The source of these data is PubChem BioAssay AID445 (National Center for Advancing Translational Sciences (NCATS), 2006).

As a reminder, the AC50 is the concentration giving half of the maximal activity seen.

Structures are written as SMILES. Some of the results follow. Shown are side measurements of this screen, not its main read-out; they come without a call. The list favours compounds with an active or inconclusive main result. The note in brackets gives the kind of curve behind each potency; many fits are weak.

The assay is described as follows: IkB Signaling. As to conditions: ABC-DLBCL IkBa-CBG/CBR dual luciferase ratio (green luciferase fused to IkBa over red control in OCI-Ly3 lymphoma cells), 4 h. Summed up:
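In this assay, an IκBα–CBG68 fusion accumulates when IKK-driven degradation is blocked; native CBR normalizes for cell number. OCI-Ly3 cells were treated 4 h with compound and doxycycline, then green and red light read after Chroma-Glo addition.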

The mark [1] stands for this setting: measured here: control luc red channel unless noted.

Regarding `COc1ccc(CNC(=O)Nc2ccc3c(c2)N(C)C(=O)c2ccccc2S3)cc1`, the half-maximal activity concentration (AC50) under setting [1] was 20 µM [falling, partial curve].

Take `Cc1cc(-c2ccc(C)c(S(=O)(=O)NC(c3cccs3)C(C)C)c2)on1` (configuration not stated): the AC50 under setting [1] is 25.1 µM [falling, single point].

Regarding `O=C(Nc1ccccc1O)c1cc(S(=O)(=O)N2CCOCC2)c(Cl)cc1Cl`, the AC50 under setting [1] is 7.94 µM [falling, partial curve].

Regarding `CCOC(=O)Nc1nnc(CCc2ccccc2)s1`, the half-maximal activity concentration (AC50) under setting [1] is 398 nM [rising, partial curve] [measured here: IkB-luc green channel].

On to `CCc1nnc(SCc2c(F)cccc2Cl)c2cc3sccc3n12`, for which the AC50 under setting [1] is 15.8 µM [falling, partial curve].

In the case of `CC1=C(C(=O)N2CCN(c3cc(C)ccc3C)CC2)C2(CCC(C)CC2)OC1=O` (configuration not stated), the AC50 under setting [1] was 39.8 µM [falling, single point].

On to `COc1ccc(C(=O)Nc2nc3nc(C)c(Cc4ccccc4)c(=O)n3[nH]2)cc1OC`, for which, under setting [1], the concentration at half-maximal activity (AC50) is 25.1 µM [falling, single point].

`CCCc1cc(=O)n2[nH]c(NC(=O)c3ccc(C(C)(C)C)cc3)nc2n1`: under setting [1], the AC50 was 25.1 µM [falling, partial curve].

Regarding `O=C(Nc1cccc(F)c1)C1CCCN1S(=O)(=O)c1cccc2cccnc12` (configuration not stated), under setting [1], the AC50 is 5.01 µM [falling, partial curve].

As for `Cc1cccc(CNS(=O)(=O)c2ccc(-c3cnc(C4CC4)o3)cc2)c1`, the AC50 under setting [1] is 20 µM [falling, partial curve].

For the compound `O=C(O)c1oc2ccc(Br)cc2c1-n1cccc1`, the half-maximal activity concentration (AC50) under setting [1] is 25.1 µM [falling, partial curve].

With `Cc1cccc(-c2noc(-c3ccccc3NC(=O)C3CC(=O)N(c4ccccc4C)C3)n2)c1` (configuration not stated), under setting [1], the AC50 is 7.94 µM [rising, full curve].

On to `COc1ccc(S(=O)(=O)Nc2cccc(-c3ccc(N4CCC(C)CC4)nn3)c2)cc1OC`, for which the AC50 under setting [1] is 0.2 µM [falling, full curve].

Take `Cn1ccc2cc(S(=O)(=O)N3CCCC(C(=O)NCc4ccccc4)C3)ccc21` (configuration not stated): under setting [1], the AC50 was 12.6 µM [falling, partial curve].

For `CCn1c(=O)c2cc(C(=O)Nc3cc(OC)c(OC)c(OC)c3)sc2c2ccccc21`, the AC50 under setting [1] is 12.6 µM [falling, partial curve].

With `N#Cc1nc(Cc2ccccc2)oc1NCc1ccccc1Cl`, the AC50 under setting [1] was 20 µM [falling, partial curve].

For the compound `Cc1ccc(Nc2nnc(-c3ccc(C)c(S(=O)(=O)N4CCOCC4)c3)c3ccccc23)c(C)c1`, under setting [1], the AC50 was 6.31 µM [falling, single point].

In the case of `CCC(Cc1ccccc1)NC(=O)Cn1ncc2c3ccccc3n(Cc3ccccc3)c2c1=O` (configuration not stated), the half-maximal activity concentration (AC50) under setting [1] was 7.94 µM [falling, partial curve].

For the compound `Cc1oc(-c2ccc(Cl)cc2)nc1CN1CCC(C(=O)NCCCN2CCN(c3cccc(Cl)c3)CC2)CC1`, the AC50 under setting [1] was 25.1 µM [falling, partial curve].

In the case of `Cc1ccc2c(c1)NC(=O)C(CC(=O)Nc1ccccc1Cl)O2` (configuration not stated), under setting [1], the AC50 is 2 µM [rising, full curve].

As for `Cc1ccc(-c2nc3nc4ccccc4nc3n2Cc2ccco2)cc1`, under setting [1], the AC50 was 2.51 µM [falling, full curve].

Consider `Cc1ccc(-n2ncc3c(NCCCn4ccnc4)ncnc32)cc1Cl`, for which the AC50 under setting [1] is 25.1 µM [falling, partial curve].

As to `COC(=O)c1cnc(NCc2ccc(F)cc2)c2ccccc12`, the AC50 under setting [1] was 39.8 µM [falling, single point].

Turning to `Cc1cc(F)ccc1S(=O)(=O)Nc1ccc2c(c1)CCCN2C(=O)c1cccs1`, the AC50 under setting [1] is 39.8 µM [falling, partial curve].

Turning to `COc1ccc(N2C(=O)C(CC(=O)Nc3ccc(F)cc3)N(Cc3ccc4c(c3)OCO4)C2=O)cc1` (configuration not stated), the AC50 under setting [1] was 25.1 µM [falling, partial curve].

Consider `CCN(CC)C(=O)Cn1c(=O)nc(-c2ccccc2F)c2cc(Cl)ccc21`, for which, under setting [1], the AC50 is 3.98 µM [falling, partial curve].

`CCCNC(=O)N1[C@H](c2ccc(C)s2)[C@@H](C)C(=O)[C@@H](C)[C@@H]1c1ccc(C)s1`: the half-maximal activity concentration (AC50) under setting [1] was 0.1 µM [rising, full curve, poor fit].

With `COc1ccc(-n2c(=O)c3sc4ccccc4c3n(CC(=O)Nc3ccccc3F)c2=O)cc1`, the AC50 reads like this: (measured here: IkB-luc green channel) 39.8 µM [rising, single point]; (measured here: control luc red channel) 5.01 µM [rising, full curve].

With `O=C(CSc1nnc(-c2cc3ccccc3cc2O)n1Cc1ccco1)c1ccc(F)cc1`, the AC50 under setting [1] was 15.8 µM [falling, partial curve].

Take `COc1cccc(NC(=O)CSc2nc3ccccc3n2C)c1`: the AC50 under setting [1] was 25.1 µM [falling, single point].

Consider `CCN(CC)c1ccc2cc(NC(=O)CCC(=O)O)c(=O)oc2c1`, for which the half-maximal activity concentration (AC50) under setting [1] was 0.251 µM [falling, full curve].

Take `COc1ccc(OC)c(CCNC(=O)c2c(C)nn(-c3ccc(F)cc3)c2-n2cccc2)c1`: the AC50 under setting [1] was 25.1 µM [falling, partial curve].

With `Cc1nnc(N2CCC(C(=O)NC3CCCCC3)CC2)c2nn(-c3ccc(Cl)cc3)c(C)c12`, the half-maximal activity concentration (AC50) under setting [1] is 15.8 µM [falling, single point].

With `COc1ccc(C)cc1Nc1nc2cc(Cl)c(Cl)cc2nc1-n1nc(C)cc1C`, the concentration at half-maximal activity (AC50) under setting [1] is 2.51 µM [falling, partial curve].

As to `C=Cc1ccc(CN2C(=O)N(c3ccc(CC)cc3)S(=O)(=O)c3ccccc32)cc1`, the AC50 under setting [1] was 0.0631 µM [rising, full curve, poor fit].

Consider `COc1ccc(C)cc1NC(=O)CSc1nc(=O)n(Cc2ccncc2)c2c1CCC2`, for which, under setting [1], the AC50 was 25.1 µM [falling, partial curve].

With `COc1ccc(C)cc1NC(=O)NCc1ccc2c(c1)CCN2C(=O)c1ccccc1`, the AC50 under setting [1] was 12.6 µM [falling, partial curve].

On to `COc1ccc(C(=O)NCCc2sc(-c3ccc(Cl)cc3)nc2C)c(OC)c1`, for which the AC50 under setting [1] is 31.6 µM [falling, single point].

On to `Cc1ccc(C)c(CN2C(=O)c3ccccc3S(=O)(=O)c3ccc(C(=O)N4CCN(c5ccccn5)CC4)cc32)c1`, for which the half-maximal activity concentration (AC50) under setting [1] is 1 µM [falling, partial curve].

Consider `CCc1cccc(N2C(=O)N(CC(=O)NCc3cccc(OC)c3OC)c3ccccc3S2(=O)=O)c1`, for which the AC50 under setting [1] is 39.8 µM [falling, single point].

Take `COCCNC(=O)c1ccc(CSc2nc3ccncc3n2Cc2ccccc2)cc1`: under setting [1], the AC50 is 12.6 µM [falling, partial curve].

On to `COc1ccc(S(=O)(=O)NCC(c2ccco2)N2CCOCC2)cc1C` (configuration not stated), for which the AC50 under setting [1] is 6.31 µM [rising, single point].

Turning to `COc1ccc2nc(NC(=O)C3CCCN3S(=O)(=O)c3ccc(C)cc3)sc2c1` (configuration not stated), the AC50 under setting [1] was 15.8 µM [falling, partial curve].

`COc1cccc(NC(=O)Cn2c(=O)n(-c3ccc(Cl)cc3)c(=O)c3sc4ccccc4c32)c1`: the AC50 under setting [1] is 3.98 µM [falling, partial curve].

Turning to `CCOc1ccc(/C=C/c2nc3ccccc3n2S(=O)(=O)c2ccc(Br)cc2)cc1`, the AC50 under setting [1] is 15.8 µM [falling, partial curve].

As to `O=C(Cn1c(=O)nc(-c2ccccc2)c2cc(Cl)ccc21)NCCc1ccc(Cl)cc1`, under setting [1], the AC50 is 20 µM [falling, partial curve].

Turning to `COC(=O)c1c(NC(=O)c2ccc(Br)s2)sc2c1CCC2`, the AC50 under setting [1] was 0.158 µM [falling, full curve].

`CCC(=O)Nc1ccc(NC(=O)c2cccc(OC)c2)nc1`: the AC50 under setting [1] is 12.6 µM [falling, partial curve].

With `CCc1ccc(NCc2cccn2-c2nnc(N3CCCCCC3)s2)cc1`, under setting [1], the half-maximal activity concentration (AC50) was 25.1 µM [falling, single point].

On to `CCc1ccc(-c2[nH]nc3nc(-c4ccc(OC)cc4)cc(C(=O)NCCc4ccc(OC)c(OC)c4)c23)cc1`, for which the AC50 under setting [1] is 2.51 µM [rising, partial curve].

For `COc1ccc(OC)c(-c2cc(C(=O)Nc3cnn(Cc4ccc(Cl)cc4Cl)c3)no2)c1`, the AC50 under setting [1] was 20 µM [falling, single point].

As for `COc1ccc2nc(NC(=O)c3cc(=O)c4ccccc4o3)sc2c1`, under setting [1], the concentration at half-maximal activity (AC50) was 7.94 µM [falling, partial curve].

As to `Cc1c(C(=O)Nc2ccncc2)sc2nc(-c3ccc(F)cc3)cn12`, under setting [1], the AC50 is 10 µM [rising, partial curve] [measured here: IkB-luc green channel].

For `COc1cc(C(=O)Nc2cc(-c3nc4cc(C)ccc4o3)ccc2C)cc(OC)c1OC`, the half-maximal activity concentration (AC50) under setting [1] was 1 µM [falling, full curve, poor fit].

Turning to `O=C(NCc1nc2cccnc2n1Cc1ccc(F)cc1)c1ccccc1C(F)(F)F`, under setting [1], the AC50 is 0.501 µM [rising, full curve].

On to `Cc1ccccc1CN1C(=O)c2ccccc2Sc2ccc(C(=O)NCc3cccs3)cc21`, for which the concentration at half-maximal activity (AC50) under setting [1] was 20 µM [falling, partial curve].

`Cc1onc(-c2ccccc2Cl)c1C(=O)N1CCN(C/C=C/c2ccccc2)CC1`: under setting [1], the AC50 is 10 µM [falling, partial curve].

Turning to `O=C(Oc1cccc(NC(=O)c2ccco2)c1)c1cccc(S(=O)(=O)N2CCCC2)c1`, the AC50 under setting [1] is 15.8 µM [falling, partial curve].

For `COc1ccc(NC(=O)CSc2nc(-c3ccco3)cc(C(F)(F)F)n2)cc1`, the AC50 under setting [1] was 2.51 µM [rising, full curve].

Turning to `CCCn1c(=O)c2[nH]c(-c3ccc(OCC(=O)Nc4ccc(C#N)cc4)cc3)nc2n(CCC)c1=O`, the AC50 under setting [1] was 3.98 µM [falling, partial curve, poor fit] [measured here: IkB-luc green channel].

On to `CCC(C)NC(=O)c1ccc2c(=O)n3c(nc2c1)CCCCC3` (configuration not stated), for which the AC50 under setting [1] is 6.31 µM [rising, partial curve].
